Measurements: paper doi:10.1101/668509
No constants are given. Whether binding was seen depends on the method and setting. Some binding calls cover weakened binding; strength is not graded here.

Amino acid sequences for entries named in this document (tags omitted). Residues count along the entry.
UniProt P08050, residues 255-382: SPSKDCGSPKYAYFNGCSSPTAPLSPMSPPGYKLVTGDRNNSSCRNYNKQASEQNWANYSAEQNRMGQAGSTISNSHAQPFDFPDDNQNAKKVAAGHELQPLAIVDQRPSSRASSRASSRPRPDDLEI

Biological target: Cx43 CT (UniProt P08050)
Experiment: protein thermal shift

- binding: binds
B1: αCT11 (peptide)
peptide: RPRPDDLEI
modifications: biotin (biotin-αCT11 in the kinase assay)
